Measurements taken from PubChem BioAssay AID540276 (National Center for Advancing Translational Sciences (NCATS), 2011).
Where “and” joins values, the source holds several entries; their conditions need not be identical. Equal values may be shown once. The whole screen tested about 300,000 compounds, of which about 5,400 (1.8%) were called active. Inconclusive results, whose numbers are uncertain, are shown with a selection of clear calls. The call rests on the fitted dose curve; tested in HEK293 cells. Potencies beside an inconclusive call are fits to weak or partial responses and may not hold up.

Assay: qHTS for inhibitors of binding or entry into cells for Marburg Virus
Conditions: Marburg virus pseudotyped entry inhibition, cell reporter; activity change, negative = inhibition: at 37.8 µM (top of the series) unless noted
On the % scale 0 is the no-effect control and ±100 the full control effect; potency means the concentration at half of the fitted maximal effect.

SMILES	Potency	activity change, negative = inhibition
Cc1cccc(OCCC(=O)OCC(=O)N2CCc3ccccc32)c1	inconclusive: 0.501 µM [inhibitor, full curve, poor fit]	
c1ccc2c(c1)CSc1ccccc1N2	inconclusive: 35.5 µM [inhibitor, single point]	
Cc1ccc(C2C(C#N)=C(N)Oc3cc4c(cc32)OCO4)cc1 (stereo not drawn)	inconclusive: 20 µM [inhibitor, single point]	
O=C(NCCCN1CCOCC1)NC12CC3CC(CC(C3)C1)C2		inactive: 8.34%
COc1ccc(Cn2c(/C=C/c3ccccc3)nc3ccccc32)cc1	inconclusive: 32.6 µM [inhibitor, single point]	
O=C(Nc1nccs1)C(c1ccccc1)N1CCCCC1 (stereo not drawn)	inconclusive: 0.112 µM [activator, full curve, poor fit]	
CCN(CC)C(=O)Oc1c(Cl)cc(Cl)c2cccnc12	inconclusive: 5.62 µM [inhibitor, single point]	
CCN(CC(=O)Nc1c(F)cccc1F)C(=O)CNC(=O)c1cccs1		inactive: -1.26%
C(=N\Nc1nc(Nc2ccccc2)nc(Nc2ccccc2)n1)/c1ccncc1	inconclusive: 20 µM [inhibitor, partial curve, poor fit]	
CC(C)NC(=O)c1cc2c(=O)n3ccccc3nc2s1		inactive: -3.38% [at 46.1 µM]
O=C(CN(c1cccc(Br)c1)S(=O)(=O)c1ccccc1)N/N=C/c1cc([N+](=O)[O-])ccc1O	inconclusive: 11.2 µM [inhibitor, partial curve, poor fit]	
CCOC(=O)C(CC)n1cnc2c(nnn2-c2cccc(OC)c2)c1=O (stereo not drawn)	inconclusive: 1.26 µM [activator, single point]	
CCn1c(C)nnc1SCC(=O)NC1CCCC1	inconclusive: 35.5 µM [activator, single point]	
Cc1c(/C(O)=C2\C(=O)C(=O)N(CCN(C)C)C2c2cccs2)cnn1-c1ccccc1 (stereo not drawn)	inactive and inconclusive: 14.1 µM [activator, partial curve, poor fit]	
COc1ccc(C2=NN(C(=O)c3ccc(Cl)c([N+](=O)[O-])c3)C(c3ccccc3)C2)cc1 (stereo not drawn)	inconclusive: 1.64 µM [inhibitor, partial curve, poor fit] and inconclusive: 29.1 µM [inhibitor, single point]	
Cn1c(=O)c2c(nc(OCc3ccc4c(c3)OCO4)n2Cc2ccccc2Cl)n(C)c1=O	inconclusive: 35.5 µM [activator, partial curve, poor fit]	
Cc1cc(C(=O)Nc2nc(-c3ccccn3)cs2)ccc1[N+](=O)[O-]	inconclusive: 35.5 µM [inhibitor, single point]	
Cc1ccsc1C1C=C(c2cccc(Br)c2)Nc2ncnn21 (stereo not drawn)	inconclusive: 35.5 µM [inhibitor, single point]	
CCCCn1c(N)c(N(CC(C)C)C(=O)CSc2n[nH]c(-c3ccc(C)cc3)n2)c(=O)[nH]c1=O	inconclusive: 35.5 µM [inhibitor, partial curve, poor fit]	
CCCCn1c(NC(=O)c2ccco2)c(S(=O)(=O)c2ccc(C)cc2)c2nc3ccccc3nc21		inactive: -20.6%
COc1ccccc1NC(=O)C(CC=C(Cl)Cl)C(C)=O (stereo not drawn)		inactive: 0.11%
O=c1/c(=C\c2cccnc2)sc2nc3ccccc3n12	inconclusive: 2.82 µM [activator, full curve, poor fit]	

Of the compounds above, these have a thiophene ring, fused or not:
SMILES	Potency	activity change, negative = inhibition
CCN(CC(=O)Nc1c(F)cccc1F)C(=O)CNC(=O)c1cccs1		inactive: -1.26%
CC(C)NC(=O)c1cc2c(=O)n3ccccc3nc2s1		inactive: -3.38% [at 46.1 µM]
Cc1c(/C(O)=C2\C(=O)C(=O)N(CCN(C)C)C2c2cccs2)cnn1-c1ccccc1 (stereo not drawn)	inactive and inconclusive: 14.1 µM [activator, partial curve, poor fit]	
Cc1ccsc1C1C=C(c2cccc(Br)c2)Nc2ncnn21 (stereo not drawn)	inconclusive: 35.5 µM [inhibitor, single point]	

Later entries

SMILES	Potency	activity change, negative = inhibition
O=C(NCc1cccc(Cl)c1)C1CCCN(c2ncnc3c2nc2n3CCCCC2)C1 (stereo not drawn)	inconclusive: 5.62 µM [inhibitor, full curve, poor fit]	
Fc1ccccc1COc1ccc2ccccc2c1CNc1nn[nH]n1		inactive: -29.3% [at 46.1 µM]
O=S(=O)(c1ccc(-c2csc(=Nc3ccc(OC(F)(F)Cl)cc3)n2CCCO)cc1)N1CCCC1	inconclusive: 7.08 µM [inhibitor, full curve, poor fit]	
CCn1c(=O)c(C(=O)CN2CCN(S(=O)(=O)c3ccc(C)cc3C)CC2)c(N)n(Cc2ccccc2)c1=O	inconclusive: 2.06 µM [inhibitor, partial curve, poor fit]	
CCn1cc(C(=O)Nc2ccc(OC)c(OC)c2)c2cc(OC)c(OC)cc2c1=O		inactive: 4.05%
CCOC(=O)N1CCN(C(=O)CN2C(=O)COc3ccc(C)cc32)CC1	inconclusive: 0.58 µM [inhibitor, partial curve, poor fit]	
O=S(=O)(Nc1cccnc1)c1cccnc1		inactive: 4.81% [at 46.1 µM]
Cn1nccc1C(=O)NC1CC(C)(C)Cc2c1cnn2-c1ccc(F)cc1 (stereo not drawn)		inactive: -12.1% [at 46.1 µM]
Cc1ccc2nc(-c3ccccc3)nn2c1	active: 8.91 µM	
Cc1noc(C)c1C(=O)N(C)CC(=O)Nc1ccc(F)c(F)c1F		inactive: 15.2%
Cn1c(SCC(=O)NCC2CCCO2)nc2c([nH]c3ccccc32)c1=O (stereo not drawn)		inactive: 0.288%
O=C(C[n+]1ccc(Cc2ccccc2)cc1)Nc1ccccc1		inactive: 0% [at 46.1 µM]
Cc1ccc(-c2nn(-c3ccccc3)cc2CNCc2ccccc2)cc1	inconclusive: 5.01 µM [inhibitor, full curve, poor fit]	
NC(=O)c1c(NC(=O)c2ccc(F)cc2)sc2c1CCC2	inconclusive: 7.08 µM [inhibitor, partial curve, poor fit]	
Cc1onc(-c2c(F)cccc2Cl)c1C(=O)OCC(=O)NCc1ccco1		inactive: -19.1%
CC(C)(C)c1ccc(O[C@@H]2[C@H](O)CO[C@@H]2/C=C/C#Cc2ccccc2)cc1		inactive: -15.8% [at 14.2 µM]
CCNC(=O)c1cc(S(=O)(=O)N(C)C)c(Cl)cc1Cl	inconclusive: 10 µM [activator, partial curve, poor fit]	
Cc1cccn2c(=O)c(/C=N/O)c(Nc3ccccc3F)nc12	inconclusive: 6.31 µM [inhibitor, partial curve, poor fit]	
N#Cc1ccc(NC(=O)CN2CCCCCC2)cc1Cl	inconclusive: 14.1 µM [inhibitor, single point]	
COc1ccc(NC(=O)CN2CCN(C(=O)C3CCCO3)CC2)c(OC)c1 (stereo not drawn)	inconclusive: 35.5 µM [activator, single point]	
CC1(C)C2CCC1(C)C(NC(=O)CCN1CCCCC1)C2 (stereo not drawn)		inactive: -18.7%
